Results are given in words; binding and its absence hold for the method and conditions named. Some binding calls cover weakened binding; strength is not graded here.

Sequences of proteins named here, by UniProt entry; tags and fusion partners are left off. A change or cut given only in a name is not applied to a line headed by its entry. A line that says so, or that is headed by a name, gives the form on record, which may keep a tag or linker.
Flt-1 (P17948, form named): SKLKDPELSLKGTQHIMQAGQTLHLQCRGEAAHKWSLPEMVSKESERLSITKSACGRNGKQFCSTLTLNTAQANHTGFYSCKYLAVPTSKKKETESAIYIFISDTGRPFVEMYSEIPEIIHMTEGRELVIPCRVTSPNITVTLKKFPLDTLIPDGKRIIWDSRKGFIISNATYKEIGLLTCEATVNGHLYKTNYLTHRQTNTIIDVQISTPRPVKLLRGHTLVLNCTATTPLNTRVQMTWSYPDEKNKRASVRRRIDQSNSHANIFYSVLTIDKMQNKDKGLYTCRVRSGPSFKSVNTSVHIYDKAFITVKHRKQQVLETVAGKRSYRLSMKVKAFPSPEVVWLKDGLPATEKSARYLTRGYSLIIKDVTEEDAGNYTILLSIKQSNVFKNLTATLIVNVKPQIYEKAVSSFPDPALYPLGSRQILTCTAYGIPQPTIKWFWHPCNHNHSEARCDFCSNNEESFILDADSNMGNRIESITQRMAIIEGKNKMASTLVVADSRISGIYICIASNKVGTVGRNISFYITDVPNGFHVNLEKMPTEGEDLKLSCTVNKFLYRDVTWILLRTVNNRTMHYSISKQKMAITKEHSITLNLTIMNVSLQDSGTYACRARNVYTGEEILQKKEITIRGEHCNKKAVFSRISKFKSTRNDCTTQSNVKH

The target in one assay is T1, PlGf-2 (human) (UniProt P49763).
T1 sequence (looked up): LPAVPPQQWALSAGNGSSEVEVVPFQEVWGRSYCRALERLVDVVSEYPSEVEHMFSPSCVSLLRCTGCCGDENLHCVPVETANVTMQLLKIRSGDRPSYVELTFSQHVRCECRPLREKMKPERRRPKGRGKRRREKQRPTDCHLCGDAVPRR
Put plainly: plate ELISA, receptor-Fc or biotinylated receptor on coated growth factor.

The target of the next assay is T2, VEGF-B (human) (UniProt P49765).
T2 sequence (looked up): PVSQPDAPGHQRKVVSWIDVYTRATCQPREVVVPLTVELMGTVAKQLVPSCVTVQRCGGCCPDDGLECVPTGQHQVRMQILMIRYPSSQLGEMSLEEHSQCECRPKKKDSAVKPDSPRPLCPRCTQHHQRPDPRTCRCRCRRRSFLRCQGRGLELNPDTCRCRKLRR
The assay is described as above.

In the case of “Flt-1 (from UniProt P17948 27-687) (receptor)”, the binding entry with PlGf-2 (human) and with VEGF-B (human) was “binds” throughout.

Source of the values: patent US20230174596A1 (published 2023).
